The other results are listed elsewhere or left out.

By UniProt entry, the sequences of proteins in these tests, tags left out. Where a name states a change or a piece, a line headed by the entry shows the natural chain unless it says otherwise.
UniProt Q6P2H3: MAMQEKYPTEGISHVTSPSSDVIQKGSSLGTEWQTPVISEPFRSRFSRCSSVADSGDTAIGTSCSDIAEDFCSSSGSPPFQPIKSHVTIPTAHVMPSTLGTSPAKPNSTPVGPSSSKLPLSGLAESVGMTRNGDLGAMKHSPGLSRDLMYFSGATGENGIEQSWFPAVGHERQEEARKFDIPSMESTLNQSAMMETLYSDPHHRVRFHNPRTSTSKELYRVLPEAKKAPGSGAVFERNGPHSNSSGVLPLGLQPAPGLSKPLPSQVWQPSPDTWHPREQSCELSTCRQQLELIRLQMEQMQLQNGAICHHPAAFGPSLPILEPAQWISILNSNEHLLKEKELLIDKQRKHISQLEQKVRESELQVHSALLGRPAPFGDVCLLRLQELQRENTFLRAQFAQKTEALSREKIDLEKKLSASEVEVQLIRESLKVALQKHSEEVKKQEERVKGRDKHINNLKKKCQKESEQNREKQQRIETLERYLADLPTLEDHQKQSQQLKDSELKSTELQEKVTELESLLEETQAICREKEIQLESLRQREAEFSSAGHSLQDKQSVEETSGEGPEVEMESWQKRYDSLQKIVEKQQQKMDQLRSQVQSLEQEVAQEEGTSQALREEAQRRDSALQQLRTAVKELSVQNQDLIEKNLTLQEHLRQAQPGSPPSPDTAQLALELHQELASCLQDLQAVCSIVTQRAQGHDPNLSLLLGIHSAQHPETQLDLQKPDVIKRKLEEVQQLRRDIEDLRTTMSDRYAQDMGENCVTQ
UniProt P49427: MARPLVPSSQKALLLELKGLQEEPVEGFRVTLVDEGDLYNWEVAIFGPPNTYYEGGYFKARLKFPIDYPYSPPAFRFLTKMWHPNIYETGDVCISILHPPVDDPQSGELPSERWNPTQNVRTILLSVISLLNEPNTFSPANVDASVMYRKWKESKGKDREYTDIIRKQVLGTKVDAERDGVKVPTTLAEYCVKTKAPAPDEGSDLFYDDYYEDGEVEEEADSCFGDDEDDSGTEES
UniProt Q5VT25: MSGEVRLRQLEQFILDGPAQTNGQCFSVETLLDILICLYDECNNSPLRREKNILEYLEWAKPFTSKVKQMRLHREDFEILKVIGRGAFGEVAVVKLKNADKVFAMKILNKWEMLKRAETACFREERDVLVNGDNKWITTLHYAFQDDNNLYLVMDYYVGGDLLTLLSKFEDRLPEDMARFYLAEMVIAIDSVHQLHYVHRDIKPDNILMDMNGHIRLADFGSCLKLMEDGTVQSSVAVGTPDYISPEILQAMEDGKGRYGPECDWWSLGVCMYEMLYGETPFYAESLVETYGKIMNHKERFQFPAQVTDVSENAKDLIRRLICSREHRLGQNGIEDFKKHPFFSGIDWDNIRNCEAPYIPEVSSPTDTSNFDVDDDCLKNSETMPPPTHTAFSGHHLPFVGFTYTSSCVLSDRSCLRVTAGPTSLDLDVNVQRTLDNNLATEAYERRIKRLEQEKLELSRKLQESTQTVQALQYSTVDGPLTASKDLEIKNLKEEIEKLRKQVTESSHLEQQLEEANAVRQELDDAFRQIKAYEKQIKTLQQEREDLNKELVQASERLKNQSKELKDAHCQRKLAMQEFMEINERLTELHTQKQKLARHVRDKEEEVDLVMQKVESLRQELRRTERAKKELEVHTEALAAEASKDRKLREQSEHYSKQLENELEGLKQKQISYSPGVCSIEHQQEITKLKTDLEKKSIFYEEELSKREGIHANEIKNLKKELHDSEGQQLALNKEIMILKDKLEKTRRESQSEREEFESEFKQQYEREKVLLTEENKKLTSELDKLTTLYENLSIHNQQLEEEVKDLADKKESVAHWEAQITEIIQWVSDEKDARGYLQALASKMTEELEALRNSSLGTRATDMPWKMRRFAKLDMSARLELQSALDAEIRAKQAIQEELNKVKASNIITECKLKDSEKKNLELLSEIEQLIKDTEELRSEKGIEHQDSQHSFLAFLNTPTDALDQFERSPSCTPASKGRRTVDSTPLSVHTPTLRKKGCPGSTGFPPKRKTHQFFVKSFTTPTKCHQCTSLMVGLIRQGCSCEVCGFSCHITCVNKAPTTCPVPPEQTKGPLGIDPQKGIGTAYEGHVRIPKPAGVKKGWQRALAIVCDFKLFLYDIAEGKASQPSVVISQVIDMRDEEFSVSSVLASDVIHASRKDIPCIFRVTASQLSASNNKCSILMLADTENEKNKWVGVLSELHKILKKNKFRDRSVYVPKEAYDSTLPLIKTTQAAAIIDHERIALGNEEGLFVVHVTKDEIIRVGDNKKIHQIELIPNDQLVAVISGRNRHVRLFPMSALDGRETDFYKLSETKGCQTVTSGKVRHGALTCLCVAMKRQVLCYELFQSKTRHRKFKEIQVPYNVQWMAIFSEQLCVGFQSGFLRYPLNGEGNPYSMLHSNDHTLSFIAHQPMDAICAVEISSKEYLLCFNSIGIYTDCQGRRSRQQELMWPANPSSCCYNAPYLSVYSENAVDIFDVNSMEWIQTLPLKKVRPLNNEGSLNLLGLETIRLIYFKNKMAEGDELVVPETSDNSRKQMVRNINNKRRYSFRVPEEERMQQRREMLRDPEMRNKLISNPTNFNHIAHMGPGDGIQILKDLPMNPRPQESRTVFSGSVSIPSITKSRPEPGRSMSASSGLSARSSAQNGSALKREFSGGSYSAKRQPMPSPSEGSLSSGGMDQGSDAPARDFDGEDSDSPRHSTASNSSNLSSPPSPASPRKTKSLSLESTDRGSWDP
UniProt Q8TAP6: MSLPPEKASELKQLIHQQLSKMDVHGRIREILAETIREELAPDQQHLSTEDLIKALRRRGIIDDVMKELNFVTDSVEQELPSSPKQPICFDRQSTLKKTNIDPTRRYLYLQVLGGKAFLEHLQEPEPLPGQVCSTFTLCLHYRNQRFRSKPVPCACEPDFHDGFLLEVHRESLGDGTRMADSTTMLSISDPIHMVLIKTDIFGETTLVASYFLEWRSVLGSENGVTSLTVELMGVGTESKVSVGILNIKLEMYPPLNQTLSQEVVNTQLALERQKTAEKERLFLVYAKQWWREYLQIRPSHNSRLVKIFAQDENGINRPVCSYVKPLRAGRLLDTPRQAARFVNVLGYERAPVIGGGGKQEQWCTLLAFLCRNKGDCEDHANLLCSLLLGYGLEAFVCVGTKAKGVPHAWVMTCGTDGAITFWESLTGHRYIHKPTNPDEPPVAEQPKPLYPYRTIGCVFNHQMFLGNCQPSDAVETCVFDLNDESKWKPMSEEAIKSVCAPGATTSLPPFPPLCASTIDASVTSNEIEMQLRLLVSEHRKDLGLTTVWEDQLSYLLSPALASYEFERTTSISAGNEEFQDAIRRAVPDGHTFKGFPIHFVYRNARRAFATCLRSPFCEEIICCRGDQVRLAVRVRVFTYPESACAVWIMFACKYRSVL
UniProt Q8N960: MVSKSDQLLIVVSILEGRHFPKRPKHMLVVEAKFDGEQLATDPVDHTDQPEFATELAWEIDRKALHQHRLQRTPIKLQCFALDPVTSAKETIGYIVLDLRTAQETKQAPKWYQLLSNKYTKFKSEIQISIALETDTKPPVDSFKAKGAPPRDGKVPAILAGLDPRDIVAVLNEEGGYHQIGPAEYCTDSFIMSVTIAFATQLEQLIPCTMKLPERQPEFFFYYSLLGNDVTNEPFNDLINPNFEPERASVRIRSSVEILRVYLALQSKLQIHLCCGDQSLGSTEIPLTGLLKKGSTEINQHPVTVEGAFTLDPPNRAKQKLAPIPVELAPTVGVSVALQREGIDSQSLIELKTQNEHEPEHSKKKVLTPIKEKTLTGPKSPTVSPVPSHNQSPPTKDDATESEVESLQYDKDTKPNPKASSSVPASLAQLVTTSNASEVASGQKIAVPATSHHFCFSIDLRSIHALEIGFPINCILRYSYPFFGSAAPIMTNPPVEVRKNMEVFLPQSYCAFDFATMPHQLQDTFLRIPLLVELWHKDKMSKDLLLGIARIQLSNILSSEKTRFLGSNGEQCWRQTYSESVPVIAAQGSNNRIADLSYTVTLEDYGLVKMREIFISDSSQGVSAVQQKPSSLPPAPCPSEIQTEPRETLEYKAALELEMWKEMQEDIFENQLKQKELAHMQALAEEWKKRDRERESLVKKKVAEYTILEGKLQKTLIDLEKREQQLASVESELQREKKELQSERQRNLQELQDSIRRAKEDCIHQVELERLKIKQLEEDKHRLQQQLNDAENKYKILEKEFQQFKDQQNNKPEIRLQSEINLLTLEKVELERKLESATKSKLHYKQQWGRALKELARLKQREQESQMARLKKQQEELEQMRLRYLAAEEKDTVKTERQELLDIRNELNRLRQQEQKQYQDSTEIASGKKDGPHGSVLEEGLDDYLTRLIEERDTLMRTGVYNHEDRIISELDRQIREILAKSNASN
UniProt Q8IW35: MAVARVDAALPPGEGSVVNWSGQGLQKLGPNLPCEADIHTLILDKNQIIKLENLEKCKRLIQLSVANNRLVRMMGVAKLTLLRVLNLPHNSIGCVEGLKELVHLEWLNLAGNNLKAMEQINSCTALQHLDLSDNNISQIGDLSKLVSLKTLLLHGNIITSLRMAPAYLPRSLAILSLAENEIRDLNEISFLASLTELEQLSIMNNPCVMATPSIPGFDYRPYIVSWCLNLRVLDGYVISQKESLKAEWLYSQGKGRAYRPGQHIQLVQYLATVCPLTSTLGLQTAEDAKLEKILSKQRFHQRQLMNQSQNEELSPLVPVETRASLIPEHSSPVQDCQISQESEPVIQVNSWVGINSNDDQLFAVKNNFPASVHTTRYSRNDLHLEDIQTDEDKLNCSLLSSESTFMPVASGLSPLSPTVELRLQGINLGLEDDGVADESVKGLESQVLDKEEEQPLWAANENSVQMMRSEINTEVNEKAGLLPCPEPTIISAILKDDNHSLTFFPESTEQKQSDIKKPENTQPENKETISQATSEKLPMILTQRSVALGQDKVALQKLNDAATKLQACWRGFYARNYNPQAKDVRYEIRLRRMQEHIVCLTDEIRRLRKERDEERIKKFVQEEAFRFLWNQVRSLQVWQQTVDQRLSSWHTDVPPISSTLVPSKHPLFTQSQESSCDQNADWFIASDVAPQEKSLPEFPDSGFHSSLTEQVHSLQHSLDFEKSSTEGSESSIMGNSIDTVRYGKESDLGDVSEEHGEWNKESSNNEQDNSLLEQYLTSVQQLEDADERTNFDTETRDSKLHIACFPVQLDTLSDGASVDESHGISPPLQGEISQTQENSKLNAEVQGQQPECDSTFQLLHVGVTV
UniProt Q01850: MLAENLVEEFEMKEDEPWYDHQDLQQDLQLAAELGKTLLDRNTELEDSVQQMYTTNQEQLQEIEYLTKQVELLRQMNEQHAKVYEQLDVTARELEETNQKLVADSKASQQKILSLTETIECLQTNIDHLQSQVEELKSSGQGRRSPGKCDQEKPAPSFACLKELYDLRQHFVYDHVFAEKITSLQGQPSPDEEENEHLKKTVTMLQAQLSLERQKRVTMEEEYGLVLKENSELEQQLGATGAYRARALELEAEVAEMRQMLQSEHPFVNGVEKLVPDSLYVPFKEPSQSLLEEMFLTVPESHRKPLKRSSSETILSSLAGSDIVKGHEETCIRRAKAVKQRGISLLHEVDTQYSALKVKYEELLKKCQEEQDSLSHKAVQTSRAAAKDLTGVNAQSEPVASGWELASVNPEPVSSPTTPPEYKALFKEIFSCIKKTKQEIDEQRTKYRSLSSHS
UniProt Q9Y5P4: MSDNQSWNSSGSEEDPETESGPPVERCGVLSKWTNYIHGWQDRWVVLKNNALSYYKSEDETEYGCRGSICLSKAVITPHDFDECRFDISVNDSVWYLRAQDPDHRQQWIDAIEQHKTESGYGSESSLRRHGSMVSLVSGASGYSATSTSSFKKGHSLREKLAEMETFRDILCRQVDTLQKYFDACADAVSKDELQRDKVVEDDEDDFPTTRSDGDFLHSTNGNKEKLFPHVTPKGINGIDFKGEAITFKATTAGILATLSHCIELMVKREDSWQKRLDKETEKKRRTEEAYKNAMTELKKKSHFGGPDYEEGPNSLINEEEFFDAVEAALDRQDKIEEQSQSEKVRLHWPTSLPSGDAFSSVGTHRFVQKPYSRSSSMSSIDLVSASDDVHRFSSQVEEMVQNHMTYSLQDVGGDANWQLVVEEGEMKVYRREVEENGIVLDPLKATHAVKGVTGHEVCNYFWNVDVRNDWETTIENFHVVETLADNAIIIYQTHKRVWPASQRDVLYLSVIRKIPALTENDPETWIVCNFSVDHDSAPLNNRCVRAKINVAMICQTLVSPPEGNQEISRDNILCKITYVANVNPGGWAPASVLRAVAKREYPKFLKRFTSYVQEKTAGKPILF
UniProt Q8WUX2: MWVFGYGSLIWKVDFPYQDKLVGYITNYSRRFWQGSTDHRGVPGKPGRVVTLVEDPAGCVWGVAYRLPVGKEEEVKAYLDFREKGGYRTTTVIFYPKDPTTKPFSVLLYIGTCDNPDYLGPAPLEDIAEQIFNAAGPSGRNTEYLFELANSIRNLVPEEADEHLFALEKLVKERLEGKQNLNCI

Compound in the test: Cc1cc(Nc2cc(N3CCN(C)CC3)nc(Sc3ccc(NC(=O)C4CC4)cc3)n2)n[nH]1 [tozasertib]
The test is described as follows: log2 fold change, soluble protein after heating vs DMSO (PISA); higher = thermal stabilisation; K562 lysate, 10 uM; active = over 0.2 and 3.5 SD of the protein, either way, in both replicates (recomputed). The method in brief: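 Soluble protein was defined as the supernatant remaining after 21,000xg for 90 min, following pooling of heated aliquots and adjustment to 0.5% NP-40 at 4°C. Before that, crude K562 extract at 1 mg/mL protein in PBS pH 7.4 with 1 mM MgCl2 was treated with 10 μM compound for 30 min and heated for 3 min across 48°C-58°C. Quantification used TMTpro 16plex LC-MS/MS with channel sums equalised, and values are log-two fold changes in thermal stability relative to solvent controls from duplicates.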
CDC42EP1 (UniProt Q00587): the log2 fold change is inactive: 0.017. As for CDCA2 (UniProt Q69YH5), the figure is inactive: 0.097; as for CEP192 (UniProt Q8TEP8), inactive: 0.071. On to CEP85 isoform 2 (UniProt Q6P2H3), for which the log2 fold change is inactive: -0.019. As for CDC34 (UniProt P49427), the figure is inactive: 0.03. For CENPU (UniProt Q71F23) the value was inactive: -0.04.

As to CENPK (UniProt Q9BS16), the log2 fold change is inactive: -0.047.

Turning to CDK1 (UniProt P06493), the log2 fold change is inactive: 0.001.

Consider CEP44 (UniProt Q9C0F1), for which the log2 fold change is inactive: -0.02.

For the target CDC42BPA isoform 6 (UniProt Q5VT25), the log2 fold change is inactive: 0.032. For CEP76 (UniProt Q8TAP6) the value was inactive: 0.079. For the target CEP120 (UniProt Q8N960), the log2 fold change was inactive: -0.096. Regarding CDC45 isoform 3 (UniProt O75419), the log2 fold change is inactive: 0. CDC37 (UniProt Q16543): the log2 fold change was inactive: -0.01. Turning to CEP97 (UniProt Q8IW35), the log2 fold change is inactive: 0.026. As for CDC5L (UniProt Q99459), the figure is inactive: 0.009.

In the case of CDR2 (UniProt Q01850), the log2 fold change is inactive: 0.026. In the case of CFAP36 (UniProt Q96G28), the log2 fold change was inactive: -0.013. For CERT isoform 3 (UniProt Q9Y5P4) the value was inactive: 0.003. CDAN1 (UniProt Q8IWY9): the log2 fold change was inactive: 0.068. For CES2 isoform 4 (UniProt O00748) the value was inactive: 0; for CDK5 (UniProt Q00535), inactive: 0.014; for CHAC2 (UniProt Q8WUX2), inactive: 0.015.

These data come from the supplement of paper PMC10849652.
